{"source": "PubChem BioAssay AID1159508 (Drosophila RNAi Screening Center, 2015)", "test": "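How silencing genes for RNA-binding proteins changes cellular ATP without other treatment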", "cells": "Drosophila S2R+ cells", "reagent": "long dsRNA against Drosophila genes", "duration": "5 days", "measured": "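Total ATP per well measured by luciferase luminescence after 5 days, expressed as z-scores for each replicate and as their average across up to three replicates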", "reading the numbers": "mean ATP z-score: higher = more total ATP luminescence", "call rule": "In these data the active calls have mean ATP z-score at about -2 or lower, or at about 2 or higher", "meaning of the calls": "active = strong ATP change (up or down); inactive = no strong ATP change", "note": "The whole screen tested 812 reagents; shown is an unselected part. In the full data, 18 (2.2%) were called active. 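Calls include both increased and decreased ATP; roughly one in four reagents has no third replicate value.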 A number with no mark means an inactive call. The numbers tell different reagents against one gene apart. Not all columns of the deposit are shown. The record does not give: the amount of reagent."}
{"predicted target":"SF1","reagent":1,"mean ATP z-score":0.511}
{"predicted target":"SF1","reagent":2,"mean ATP z-score":-0.0741}
{"predicted target":"Cpsf5","reagent":1,"mean ATP z-score":0.582}
{"predicted target":"Cpsf5","reagent":2,"mean ATP z-score":1.2}
{"predicted target":"eIF4H1","reagent":1,"mean ATP z-score":0.0825}
{"predicted target":"eIF4H1","reagent":2,"mean ATP z-score":0.828}
{"predicted target":"Dbp73D","reagent":1,"mean ATP z-score":-0.138}
{"predicted target":"Dbp73D","reagent":2,"mean ATP z-score":0.85}
{"predicted target":"eIF3f2","reagent":1,"mean ATP z-score":0.917}
{"predicted target":"eIF3f2","reagent":2,"mean ATP z-score":-0.23}
{"predicted target":"exu","reagent":1,"mean ATP z-score":0.461}
{"predicted target":"exu","reagent":2,"mean ATP z-score":0.378}
{"predicted target":"CG32344","reagent":1,"mean ATP z-score":-0.00408}
{"predicted target":"CG32344","reagent":2,"mean ATP z-score":-0.323}
{"predicted target":"DIP1","reagent":1,"mean ATP z-score":0.808}
{"predicted target":"DIP1","reagent":2,"mean ATP z-score":-0.122}
{"predicted target":"CG5808","reagent":1,"mean ATP z-score":-0.251}
{"predicted target":"CG5808","reagent":2,"mean ATP z-score":-0.504}
{"predicted target":"Vps36","reagent":1,"mean ATP z-score":0.362}
{"predicted target":"Vps36","reagent":2,"mean ATP z-score":-0.0105}
{"predicted target":"pelo","reagent":1,"mean ATP z-score":1.31}
{"predicted target":"pelo","reagent":2,"mean ATP z-score":-0.0464}

Targets listed so far whose gene name starts with S or s:
{"predicted target":"SF1","reagent":1,"mean ATP z-score":0.511}
{"predicted target":"SF1","reagent":2,"mean ATP z-score":-0.0741}
